PubChem BioAssay AID540276 (National Center for Advancing Translational Sciences (NCATS), 2011)
Several values for one entry are separate records, joined by “and”; a condition that tells them apart may be missing. Equal values may be shown once. Out of some 300,000 compounds screened, about 5,400 (1.8%) were called active. The shares of active, inactive and inconclusive entries below differ from those in the screen. The call rests on the fitted dose curve; tested in HEK293 cells. Potencies beside an inconclusive call are fits to weak or partial responses and may not hold up.

Test: qHTS for inhibitors of binding or entry into cells for Marburg Virus
Conditions: Marburg virus pseudotyped entry inhibition, cell reporter; activity change, negative = inhibition: at 37.8 µM (top of the series) unless noted
On the % scale 0 is the no-effect control and ±100 the full control effect; potency means the concentration at half of the fitted maximal effect.

| Structure (SMILES) | activity change, negative = inhibition | Potency |
| --- | --- | --- |
| S=C(NCc1ccco1)Nc1ccc(Br)cc1Cl | inactive: -14.5% [at 46.1 µM] | – |
| Cc1ccccc1CNC(=O)CCSCc1cnn(-c2ccccc2)c1-n1cccc1 | inactive: -15.7% [at 46.1 µM] | – |
| O=[N+]([O-])c1cc(F)c(N2CCCC2)cc1Br | – | inconclusive: 11.2 µM [inhibitor, partial curve, poor fit] |
| COc1ccccc1C1CCN(C(=O)c2ccc(C(C)(C)C)cc2)CC1 | – | inconclusive: 35.5 µM [inhibitor, single point] |
| N#Cc1cc2c(nc1SCC(=O)N1CCCCC1)CCCCC2 | inactive: 0.107% [at 46.1 µM] | – |
| CCOc1ccc(CCNC(=O)c2cc3c(-c4ccccc4F)nn(C)c3s2)cc1OCC | – | inconclusive: 35.5 µM [inhibitor, single point] |
| CCOC(=O)CN1N=C(c2ccc(Cl)cc2)CCC1=O | inactive: 18.3% | – |
| Cc1cccc(C)c1NC(=O)C(c1ccccc1)N1CCC1=O (configuration not stated) | inactive: 29% | – |
| COc1ccc(C2c3c(-c4ccc(F)cc4)n[nH]c3C(=O)N2c2ccccc2)cc1OC (configuration not stated) | inactive: -20.8% [at 46.1 µM] | – |
| COc1ccc(C2=NCC(=O)N(CC(=O)NCc3ccco3)c3sc4c(c32)CCCC4)cc1 | – | inconclusive: 29.1 µM [inhibitor, single point] |
| CCOC(=O)CNc1nc(C(C)(C)C)nc2c1nnn2Cc1ccccc1Cl | – | inconclusive: 23.1 µM [inhibitor, single point] |
| COC(=O)c1c(N(S(C)(=O)=O)S(C)(=O)=O)sc2c1CCN(c1ncc(C(F)(F)F)cc1Cl)C2 | inactive: -1.57% [at 46.1 µM] | – |
| C/C(=N\NC(=O)COc1ccc(C)cc1C(C)C)c1cc2ccccc2o1 | – | inconclusive: 35.5 µM [inhibitor, single point] |
| CC(=O)c1cccc(OCc2cc(C(=O)N3C[C@@H](C)O[C@@H](C)C3)no2)c1 | – | inconclusive: 3.16 µM [activator, single point] |
| Cc1cccc2cc(CN(Cc3ccccc3)C(=O)c3cccc(F)c3)c(Cl)nc12 | – | inconclusive: 23.1 µM [inhibitor, partial curve, poor fit] |
| CCCCOc1ccc(CC(=O)NO)cc1 | – | inactive |
| Cc1c(C(=O)N(C)C2CCCCC2)sc2ncnc(N3CCN(c4ccccc4F)CC3)c12 | – | inconclusive: 35.5 µM [inhibitor, single point] |
| COc1ccc(-n2c(=S)[nH]c3ccccc32)cc1 | inactive: 14.4% | – |
| Cn1nc(-c2ccc(OCC(=O)NCC3CCCO3)cc2)c2ccccc2c1=O (configuration not stated) | – | inconclusive: 28.2 µM [inhibitor, single point] |
| O=C(CCCOc1ccccc1)Nc1nc2ccccc2[nH]1 | – | inconclusive: 10 µM [inhibitor, partial curve, poor fit] |
| COc1cccc(CNC(=O)CCc2ccc(OC)c(OC)c2)c1 | inactive: 18.5% | – |
| c1ccc(-n2cccc2CNC2CCCCC2)cc1 | – | active: 20.6 µM |
| Cc1nnc(NC(=O)CSc2nnc3ncccn23)s1 | inactive: 11.3% [at 46.1 µM] | – |
| CC1(Br)C2CCCC1C2S(=O)(=O)c1ccccc1 (configuration not stated) | – | inconclusive: 1.58 µM [activator, partial curve, poor fit] |

| Structure (SMILES) | activity change, negative = inhibition | Potency |
| --- | --- | --- |
| Cc1ccccc1NC(=O)Nc1ccccc1C(N)=O | inactive: -14.4% | – |
| O=C(c1cc(-c2cccs2)nc2ccccc12)N1CCN(S(=O)(=O)c2cccc(F)c2)CC1 | – | inconclusive: 7.94 µM [inhibitor, partial curve, poor fit] |
| CN(C)c1ccc(/C=C2\C(=O)Nc3ccccc32)cc1 | – | active: 2 µM |
| CCc1ccc(NC(=O)CSc2nnc(-c3n[nH]c4ccccc34)n2-c2ccccc2)cc1 | – | inconclusive: 0.164 µM [inhibitor, single point] |
| O=C(Nc1ccc(S(=O)(=O)N2CCCC2)cc1)c1cccs1 | inactive: -4.75% [at 46.1 µM] | – |
| CCOC(=O)c1c(NC(=O)CSc2nnc3c(n2)[nH]c2ccccc23)sc2c1CCN(C)C2 | – | inconclusive: 12.6 µM [inhibitor, partial curve, poor fit] |
| Cc1ccccc1CC1(CO)CCCN(C(=O)c2ccccc2N(C)C)C1 (configuration not stated) | inactive: -11.4% [at 46.1 µM] | – |
| Cc1ccc(OCc2cc(C(=O)N3CCN(C4CCCC4)CC3)no2)cc1C | – | inconclusive: 5.01 µM [activator, single point] |
| Cn1c(CCN2CCCCCC2)nc2cc(NC(=O)Nc3ccccc3)ccc21 | – | inconclusive: 1.83 µM [inhibitor, partial curve, poor fit] |
| CCOC(=O)c1c(-c2ccccc2)oc2cc(Br)c(O)c(C=O)c12 | – | inconclusive: 2.82 µM [inhibitor, partial curve, poor fit] |
| Fc1ccc(N2CCN(c3ncnc4c3nc3n4CCCC3)CC2)cc1 | inactive: 3.04% [at 46.1 µM] | – |
| CCCCOC(=O)c1ccc(NC(=O)c2ccccc2OC)cc1 | – | inconclusive: 25.1 µM [inhibitor, partial curve, poor fit] |
| CC(=O)Nc1sc2c(c1C(N)=O)CCCC2 | inactive: -1% | – |
| Cc1ccc(S(=O)(=O)NCC(=O)N(CC(=O)NCc2ccco2)Cc2cccs2)cc1 | inactive: -13.6% | – |
| CC(C)c1cccc(C(C)C)c1O | – | inconclusive: 35.5 µM [activator, single point] |
| O=C(NC1CCCCCC1)C(=S)NCc1ccccc1 | – | inactive |
| CCCNS(=O)(=O)c1cccc(C(=O)OCc2cc(=O)oc3cc(OC)ccc23)c1 | – | inconclusive: 0.891 µM [inhibitor, full curve] |
| O=C(COc1ccccc1)Nc1ccc2nc(SCC(=O)N3CCCC3)sc2c1 | – | inconclusive: 12.6 µM [inhibitor, single point] |
| COc1cc(O)c2c(=O)c(-c3ccc(O[C@@H]4O[C@H](CO)[C@@H](O)[C@H](O)[C@H]4O)cc3)coc2c1 | – | active: 10 µM |
| COc1cccc(-n2nnnc2SCC(=O)Nc2nc3c(s2)CCCC3)c1 | inactive: 1.36% | – |
| CCOC(=O)C1CCN(C(=O)CC(C)c2ccccc2)CC1 (configuration not stated) | inactive: 17.7% | – |
| O=C(NCc1ccc(F)cc1)c1ccc(N2CCc3ccccc32)c([N+](=O)[O-])c1 | – | inconclusive: 20.6 µM [inhibitor, partial curve, poor fit] |
| Cc1cc(OCc2cc(C(=O)N(C)C3CCOC3)no2)cc(C)c1Cl (configuration not stated) | – | inconclusive: 35.5 µM [inhibitor, single point] |
| Cc1cccc(-c2nnc3n2N=C(c2ccc(Br)cc2)CS3)c1 | – | inconclusive: 6.51 µM [inhibitor, full curve, poor fit] |

| Structure (SMILES) | activity change, negative = inhibition | Potency |
| --- | --- | --- |
| O=C1c2ccc3c4c(ccc(c24)C(=O)N1c1ccc2ccccc2c1)CC3 | – | inconclusive: 6.51 µM [inhibitor, single point] |
| Cc1nc2ccc(NC(=O)CCS(=O)(=O)c3ccc(Cl)cc3)cc2s1 | – | inconclusive: 35.5 µM [inhibitor, single point] |
| CCCSc1ccc(-c2nn(-c3ccccc3)cc2/C=C(/C#N)C(=O)N2CCOCC2)cc1 | – | active: 7.08 µM |
| CCOc1ccc(-c2nnn(CC(=O)Nc3cccc(OC)c3)n2)cc1OCC | – | inconclusive: 29.1 µM [inhibitor, partial curve, poor fit] |
| CCCCC[C@H](CC(=O)NO)C(=O)N[C@H](C(=O)N1CCC[C@H]1CO)C(C)C | – | inconclusive: 6.31 µM [inhibitor, full curve, poor fit] and inconclusive: 9.2 µM [inhibitor, partial curve] |
| COc1ccccc1NC(=O)c1ccc(Cl)c(S(=O)(=O)N2CCCCC2)c1 | – | inconclusive: 0.251 µM [inhibitor, full curve, poor fit] |
| CCOC(=O)/C(C#N)=C/c1cc2ccc(C)cc2nc1Cl | – | inconclusive: 0.562 µM [activator, partial curve, poor fit] |
| Cc1nc(N)nc(Cl)c1Cc1ccc(Cl)cc1 | – | inconclusive: 3.16 µM [inhibitor, single point] |
| O=[N+]([O-])c1cc(S(=O)(=O)C(F)(F)F)ccc1NCC1CCCO1 (configuration not stated) | inactive: 9.77% [at 46.1 µM] | – |
| Cc1ccc(NC(=O)c2ccco2)c([N+](=O)[O-])c1 | – | inconclusive: 0.631 µM [inhibitor, full curve, poor fit] |
| O=C(NC(=S)Nc1cccnc1Cl)c1ccc(F)cc1 | inactive: 2.61% [at 46.1 µM] | – |
| CCCCSc1nnc2c(n1)OC(c1ccc(C)s1)Nc1ccccc1-2 (configuration not stated) | inactive: 27.5% [at 46.1 µM] | – |
| CCC(CC)c1nn2cc(-c3ccccc3)nc2s1 | – | inconclusive: 0.316 µM [activator, full curve, poor fit] |
| Cc1ccc(N2CCN(S(=O)(=O)c3cc(Br)cc4c3N(C(=O)C3CC3)CC4)CC2C)cc1 (configuration not stated) | inactive: -4.46% [at 46.1 µM] | – |
| N#C/C(=C\c1cc(Cl)ccc1O)C(=O)NC1CCCCC1 | – | inconclusive: 0.92 µM [activator, full curve, poor fit] |
| COc1cnc(-c2ccccn2)nc1Sc1ccccc1 | – | inconclusive: 35.5 µM [inhibitor, single point] |
| O=C(NCc1ccccc1Cl)c1cccc(NC(=O)c2ccccc2)c1 | – | inconclusive: 35.5 µM [inhibitor, single point] |
| CCOc1ccc(N(CC(=O)Nc2ccc(C)cc2)S(=O)(=O)c2c(C)noc2C)cc1 | inactive: -4.9% | – |
| O=C(Nc1ccncc1)c1ccc(Cl)c(Cl)c1 | – | inconclusive: 17.8 µM [inhibitor, single point] |
| CCCCOc1cccc(C(=O)Nc2ccc(NC(=O)c3cccs3)cc2)c1 | – | inconclusive: 20 µM [inhibitor, single point] |
| CCOC(=O)c1cc2c(=O)n3ccccc3nc2n(Cc2ccco2)c1=NC(=O)c1ccc(OC)cc1OC | – | inconclusive: 8.91 µM [inhibitor, partial curve, poor fit] |
| N#Cc1nc(-c2ccc(Cl)cc2)oc1NCCc1ccccn1 | inactive: 6.3% | – |
| Fc1ccc(NC(=S)Nc2ccc(F)c(Cl)c2)cc1Cl | inactive: 0.17% [at 46.1 µM] | – |
| O=C(CSc1nnnn1-c1ccc2c(c1)CCC2)NCc1cccs1 | – | inconclusive: 6.51 µM [inhibitor, single point] |

Five compounds drawn at random from the list so far, as already listed:

| Structure (SMILES) | activity change, negative = inhibition | Potency |
| --- | --- | --- |
| CCOc1ccc(CCNC(=O)c2cc3c(-c4ccccc4F)nn(C)c3s2)cc1OCC | – | inconclusive: 35.5 µM [inhibitor, single point] |
| C/C(=N\NC(=O)COc1ccc(C)cc1C(C)C)c1cc2ccccc2o1 | – | inconclusive: 35.5 µM [inhibitor, single point] |
| CC1(Br)C2CCCC1C2S(=O)(=O)c1ccccc1 (configuration not stated) | – | inconclusive: 1.58 µM [activator, partial curve, poor fit] |
| Fc1ccc(NC(=S)Nc2ccc(F)c(Cl)c2)cc1Cl | inactive: 0.17% [at 46.1 µM] | – |
| O=C(CSc1nnnn1-c1ccc2c(c1)CCC2)NCc1cccs1 | – | inconclusive: 6.51 µM [inhibitor, single point] |
